Screening data, single-dose tests

Amino acid sequences for entries named in this document (tags omitted).
UniProt P9WPC5, whole entry: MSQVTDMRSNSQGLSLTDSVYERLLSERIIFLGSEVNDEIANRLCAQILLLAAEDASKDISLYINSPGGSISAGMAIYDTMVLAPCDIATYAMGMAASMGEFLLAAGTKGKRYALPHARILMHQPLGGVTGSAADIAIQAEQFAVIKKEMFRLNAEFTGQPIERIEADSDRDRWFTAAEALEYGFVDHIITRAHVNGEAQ
UniProt P9WPC3, whole entry partner: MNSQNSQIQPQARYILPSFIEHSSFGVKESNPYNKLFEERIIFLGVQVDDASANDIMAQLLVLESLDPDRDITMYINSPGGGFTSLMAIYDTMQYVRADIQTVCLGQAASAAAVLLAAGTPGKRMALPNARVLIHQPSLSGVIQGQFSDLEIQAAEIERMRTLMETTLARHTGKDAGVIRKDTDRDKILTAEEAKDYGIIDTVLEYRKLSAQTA
UniProt I6X8D2, whole entry: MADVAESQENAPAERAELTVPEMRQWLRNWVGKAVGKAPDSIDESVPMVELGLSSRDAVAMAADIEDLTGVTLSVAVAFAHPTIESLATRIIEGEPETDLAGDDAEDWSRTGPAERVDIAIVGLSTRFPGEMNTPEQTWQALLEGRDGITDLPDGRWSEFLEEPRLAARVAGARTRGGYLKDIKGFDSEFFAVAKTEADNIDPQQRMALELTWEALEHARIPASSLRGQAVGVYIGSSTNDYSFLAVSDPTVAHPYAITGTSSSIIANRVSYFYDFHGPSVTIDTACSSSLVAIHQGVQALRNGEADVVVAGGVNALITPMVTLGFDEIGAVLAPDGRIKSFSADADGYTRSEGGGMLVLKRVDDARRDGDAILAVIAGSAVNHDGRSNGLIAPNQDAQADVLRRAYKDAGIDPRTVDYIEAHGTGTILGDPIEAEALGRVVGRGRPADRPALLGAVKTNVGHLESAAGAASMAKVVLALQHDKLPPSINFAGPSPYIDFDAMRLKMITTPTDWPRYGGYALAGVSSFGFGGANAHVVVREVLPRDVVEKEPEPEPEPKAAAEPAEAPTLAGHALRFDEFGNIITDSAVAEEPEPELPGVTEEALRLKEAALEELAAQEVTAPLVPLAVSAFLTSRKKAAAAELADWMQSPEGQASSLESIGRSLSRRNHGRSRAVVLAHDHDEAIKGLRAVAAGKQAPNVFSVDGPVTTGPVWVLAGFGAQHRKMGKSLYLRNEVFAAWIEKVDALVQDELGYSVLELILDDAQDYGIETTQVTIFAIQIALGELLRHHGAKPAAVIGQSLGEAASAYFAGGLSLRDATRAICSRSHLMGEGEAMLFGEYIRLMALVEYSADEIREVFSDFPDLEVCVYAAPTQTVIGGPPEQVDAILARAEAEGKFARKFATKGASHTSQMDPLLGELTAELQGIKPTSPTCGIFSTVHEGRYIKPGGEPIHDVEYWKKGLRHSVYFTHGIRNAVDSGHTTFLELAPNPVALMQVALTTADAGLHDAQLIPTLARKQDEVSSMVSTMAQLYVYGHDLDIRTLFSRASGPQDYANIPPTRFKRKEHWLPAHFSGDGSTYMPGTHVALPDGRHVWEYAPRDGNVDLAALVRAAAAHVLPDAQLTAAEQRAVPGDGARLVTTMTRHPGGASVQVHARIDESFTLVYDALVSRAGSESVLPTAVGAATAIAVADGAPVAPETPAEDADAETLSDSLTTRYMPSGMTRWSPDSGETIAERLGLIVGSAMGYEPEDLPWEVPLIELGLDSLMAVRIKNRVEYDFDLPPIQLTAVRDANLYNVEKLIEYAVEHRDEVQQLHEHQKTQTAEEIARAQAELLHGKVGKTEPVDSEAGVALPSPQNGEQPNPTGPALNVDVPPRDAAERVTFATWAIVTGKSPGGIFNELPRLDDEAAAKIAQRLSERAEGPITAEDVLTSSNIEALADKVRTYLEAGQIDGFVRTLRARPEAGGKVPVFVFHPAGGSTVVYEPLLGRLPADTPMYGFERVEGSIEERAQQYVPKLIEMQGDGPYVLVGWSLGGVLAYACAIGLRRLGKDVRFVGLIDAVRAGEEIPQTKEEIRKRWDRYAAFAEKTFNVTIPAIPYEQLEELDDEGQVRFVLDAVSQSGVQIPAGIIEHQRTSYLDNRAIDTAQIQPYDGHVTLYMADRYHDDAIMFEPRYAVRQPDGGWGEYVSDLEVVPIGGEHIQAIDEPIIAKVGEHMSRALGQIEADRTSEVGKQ

Results are given as percent effect. The controls that fix the scale are not given in the record; negative values are as filed. This is an unselected part of the compounds tested. Two or more numbers in one place are separate tests of the same structure; such repeats can differ widely. A dash means the value is not listed here; it may have been measured.

Leishmania in macrophages: 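Cell assay of Leishmania donovani living inside macrophages; the read-out is not stated. Compounds at 30 µM. Direction is inferred from retests: higher values go with stronger inhibition. Of about 69,000 compounds tested this way, about 1,000 (1.5%) reached 50% or more in at least one test.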
Toxoplasma: 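Assay of Toxoplasma gondii numbers, read through their beta-galactosidase reporter with a colour substrate. Concentration: 10 µM. Higher reads as fewer parasites (inferred from which compounds were picked for retests). Of about 67,000 compounds tested this way, about 260 (0.38%) reached 50% or more in at least one test.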
ClpP1P2: 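Protease assay of ClpP1P2, read by the AMC dye that it sets free. Target: ClpP1P2, Mycobacterium tuberculosis (UniProt P9WPC5 and UniProt P9WPC3). Concentration: 50 µM. Higher reads as stronger inhibition, judged from the few compounds that gave an IC50. Most other retested compounds had strongly negative values. Of about 69,000 compounds tested this way, about 10 (0.015%) reached 50% or more in at least one test.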
T. brucei: 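Whole-parasite assay of Trypanosoma brucei over 72 hours; the read-out is not stated. Concentration: 30 µM. The record gives no direction; compounds that gave an IC50 in retests scored well above the rest, so higher reads as stronger inhibition. Values scatter widely below zero; nearly all retest evidence comes from the higher of the two concentrations used. About 64,000 compounds were tested under these conditions; 1.5% (about 940) showed 50% or more at least once.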
Pks13 thioesterase: 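Polyketide synthase Pks13, Mycobacterium tuberculosis (UniProt I6X8D2). Enzyme assay of the thioesterase domain of polyketide synthase 13; the read-out is not stated. Tested at 30 µM. Higher reads as stronger inhibition (inferred from which compounds were picked for retests). Of about 67,000 compounds tested this way, about 300 (0.46%) reached 50% or more in at least one test.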

Compound	Leishmania in macrophages	Toxoplasma	ClpP1P2	T. brucei	Pks13 thioesterase
FC1(F)CCN(Cc2ccncc2)CC12CCN(c1cnccn1)C2.O=C(O)C(F)(F)F.O=C(O)C(F)(F)F.O=C(O)C(F)(F)F (stereo not drawn)	28.02%	4.18%	-	6.608%	-
O=C(COCC1CC1)N1CCCC(n2cccn2)C1 (stereo not drawn)	6.888%	3.093%	12.87%	-26.25%	-6.631%
CCN(C)S(=O)(=O)NCC1(c2ccccc2Br)CC1	-23.2%	-4.182%	-5.561%	-1.781%	16.44%
CNCc1cn(C[C@H]2CC3CCN2C[C@@H]3C(=O)Nc2ccccc2)nn1 (stereo partly drawn)	-61.24%	-4.196%	-2.885%	-13.32%	-41.88%
CCNC(=O)C1CCCN(c2ccc(C#N)cc2C(F)(F)F)C1 (stereo not drawn)	-3.409%	-0.437%	1.842%	-15.33%	-12.74%
Cc1ccsc1C(=O)N1CCc2ncc(CN3CCCC3)n2CC1	-	-	-6.878%	-	-8.749%
CCn1c(CN(C)Cc2cnc(C)s2)nc2c(F)cccc21	29.5%	-16.29%	-7.664%	-26.74%	-65.24%
Cc1noc(C)c1-c1cccc(C2CCN(CC(=O)N(C)C)CC2)n1	21.67%	0.1527%	-12.31%	7.893%	13.21%
O=C(c1ccc(N2CCOCC2)cc1)N1CCCC(n2ccnc2)C1 (stereo not drawn)	-13.07%	-10.21%	-10.84%	-	-42.51%
CCOCC1CN(CC2CC2)Cc2nn(CC3CC3)cc21.O=C(O)C(F)(F)F (stereo not drawn)	-3.875%	-18.7%	-	-2.92%	-
CN1CCC2(CC1)CN(C(=O)c1cccnc1)c1ccc(Cl)cc12	29.94%	-17.5%	0.6266%	3.196%	-18.97%
CN(Cc1cncnc1)[C@H]1CN(C(=O)c2ccc[nH]2)[C@@H]2CCCO[C@@H]21	-	-	-4.966%	-	-
COc1cc(NCCNC(=O)c2cscc2C)cc(OC)c1	6.834%	-8.916%	0.7345%	-48.58%	29.42%
Cc1ccc(C(O)CNC(=O)CCCc2ccccn2)o1 (stereo not drawn)	7.652%	3.243%	-8.217%	-5.869%	-2.249%
CN(C)CCn1c(=O)oc2ccc(NC(=O)CSc3ccccc3)cc21	15.52%	18.14%	10.44%	24.28%	-4.72%
CC(=O)c1ccc(NC(=O)c2ccc3c(c2)C2(CCCCC2)CN3)cc1.O=C(O)C(F)(F)F	28.79%	-26.71%	-	-13.93%	-
Cn1cncc1CNC1CC2(CCN(CC3CC3)CC2)c2ccccc21 (stereo not drawn)	-	-	0.772%	-	-42.69%
CCN1CCC2(CC1)CC(NCc1cccc(C)n1)c1ccccc1O2 (stereo not drawn)	-	-	-11.94%	-	4.706%
Cc1csc(CN(C)CCOc2ccccc2)n1	7.563%	-4.204%	-6.162%	-0.06694%	5.324%
O=C(O)C(F)(F)F.[H][C@@]12CCCO[C@]1([H])[C@H](N(CC)CC)CN2C(=O)c1ccc(C#N)cc1	12.65%	-1.968%	-	-34.15%	-
Cc1ccc(F)c(S(=O)(=O)Nc2cn(C)cc(Br)c2=O)c1	-3.804%	3.486%	-13.98%	-7.388%	-21.47%
CC1=Nc2c(c(=O)[nH]n2C2CCCC2)C(c2ccc(C(=O)O)cc2)S1 (stereo not drawn)	17% and 25.43%	9.569%	-6.167% and -4.207%	5.124% and -8.791%	-0.1616% and -14.62%
COc1cc(C(C)=O)ccc1OCCNCc1ccco1	-	-	-1.241%	-	-8.84%
Cc1ccc(-c2cn[nH]c2C2CCCN(c3cnccn3)C2)cc1 (stereo not drawn)	10.5%	-15.59%	-0.3632%	-2.265%	-26.87%
CC(C)[C@H](NC(=O)N1CCC(Cc2ccccc2)CC1)C(=O)O	-13.33%	25.01%	-15.77%	-45.22%	-7.405%
CCNC(=O)Cc1ccc(-c2cccc3c2CCNC3)cc1	-42.38%	-	-2.81%	-41.67%	-1.897%
CN(C)C(=O)[C@H]1C[C@@H]2CN(S(=O)(=O)Cc3ccccc3)C[C@H]1O2	-	-	5.32%	-	-20.89%
COCC1CN(C(=O)Nc2cc(Br)ccc2F)CCO1 (stereo not drawn)	-10.49%	-2.62%	-1.139%	-4.445%	3.276%
CS(=O)(=O)N1CCCC(C(=O)Nc2cnn(COCC(F)(F)F)c2)C1 (stereo not drawn)	15.82%	-2.893%	-6.448%	10.5%	6.983%
COCC(=O)N1CCCN(C(=O)C2Cc3ccccc3CN2C)CC1 (stereo not drawn)	-1.554%	9.652%	-2.565%	-65.81%	-0.01886%
COc1c(CNCc2cccc(CN(C)C)c2)c(C)nn1C.Cl	41.69%	10.17%	-	-9.482%	-
CCOCC1CN(c2ccc(C)nn2)Cc2cnn(CC)c21 (stereo not drawn)	-	-	-11.32%	-	7.393%
COCCCN1CCC(C(=O)c2cc(F)ccc2F)CC1	48.57%	-0.7339%	1.359%	-11.01%	-10.72%
Cc1noc(CN2CCN(C(=O)N(C)C)CC2)n1	8.701%	9.353%	-15.17%	-	-4.382%
Cc1ccc(O[C@@H]2C[C@H]3CN(Cc4nccn4C)CCN3C2)cc1	-	-	-4.661%	-	-12.56%
CN(C)C(=O)CN1CCC2(CC1)C[C@@H](O)[C@H](c1ccccc1)NC2=O	11.24%	14.29%	3.417%	-0.7623%	-32.67%
Cc1ccc(-n2c(SCC(=O)O)nnc2-c2cccc(C)c2)cc1	22.29%	23.68%	-4.033%	7.918%	-1.78%
Cc1ccc(NC2CCN(C(=O)c3cccnc3O)CC2)nn1	-28.81%	-3.565%	-13.87%	-11.32%	-19.6%
COc1cccc([C@@H]2CN(C(=O)c3ccc(C)cc3O)C[C@H]2C(=O)O)c1	10.02%	-0.1595%	0.46%	-2.203%	-2.168%
CCn1cc(CN2CCN(CC(O)c3ccc(C)cc3C)CC2)cn1 (stereo not drawn)	18.85%	6.824%	-6.232%	-4.002%	4.845%
[H][C@@]12CNCC[C@]1(O)CCN(c1cncc(C(=O)N3CCCC3)n1)C2	13.37%	20.6%	-	-4.852%	-
Oc1ccccc1-c1cc(-c2nc(C3CC3)n[nH]2)[nH]n1	-14.78%	1.506%	-8.553%	12.06%	-14.13%
Cc1nc(C2CCCN2CCCS(=O)(=O)c2ccccc2)no1 (stereo not drawn)	-3.251%	16.35%	-13.29%	0.9617%	-16.08%
CCc1cnc(C)nc1NCc1cnc2c(c1)CCC2	-7.943%	0.09074%	4.974%	-1.376%	-3.615%
Cc1ncnc2c1CCN(C(=O)CN(C)C)CC2	-	-	3.095%	-	-12.7%
CCCc1cnc(C)nc1N1CCC(Cc2ccc(CO)cc2)C1 (stereo not drawn)	12.97%	2.056%	-12.86%	-69.26%	-9.099%
CN(Cc1ccccc1C(F)(F)F)C(C(N)=O)c1ccccc1 (stereo not drawn)	68.32%	0.4858%	4.481%	-23.05%	19.07%
COc1cc(NCCCSc2nnc(C)s2)ncn1	57.45%	17.92%	21.75%	-53.02%	-10.16%
CSc1nccc(N2C[C@@H](CN3CCCCC3)[C@@H](CO)C2)n1	3.969%	-14.28%	-3.113%	-9.185%	-33.84%
CCc1ncc(C(=O)N(C)Cc2cc(-c3ccncc3)no2)cn1	-25.57%	-	16.86%	-23.64%	15.31%
Cc1csc(C2CCCN(C(=O)c3cnn4ccc(C)nc34)C2)n1 (stereo not drawn)	11.01%	-12.35%	-6.453%	-7.521%	-18.15%
Cc1nc(COC[C@@H]2CC[C@H]3[C@H](CCN3c3ncccn3)O2)cs1	-	-	7.642%	-	-28.41%
COc1ccc2[nH]c(=O)c(CN(C)CCN3CCCC3)cc2c1	-38.28%	-4.153%	-65.96%	-	16.44%
COCC(=O)N1CCN(C(=O)c2cccs2)C[C@H]1C(=O)OC	9.324%	-3.012%	-5.517%	-5.778%	-
CCn1nc(CC(C)C)cc1C(=O)N1CCN([C@H]2CCCC[C@@H]2O)CC1	-8.952%	-12.88%	1.884%	-0.9519%	-12.87%
O=C(c1cccnc1)C1CCCN(c2nnc(C3CC3)o2)C1 (stereo not drawn)	25.78%	0.8051%	-3.568%	-35.25%	-25.27%
CN1Cc2[nH]nc(COCC3CC3)c2C1.O=C(O)C(F)(F)F.O=C(O)C(F)(F)F	-0.3912%	1.456%	-	-60.27%	-

Repeated from the top, 5 entries:

Compound,Leishmania in macrophages,Toxoplasma,ClpP1P2,T. brucei,Pks13 thioesterase
FC1(F)CCN(Cc2ccncc2)CC12CCN(c1cnccn1)C2.O=C(O)C(F)(F)F.O=C(O)C(F)(F)F.O=C(O)C(F)(F)F (stereo not drawn),28.02%,4.18%,-,6.608%,-
O=C(COCC1CC1)N1CCCC(n2cccn2)C1 (stereo not drawn),6.888%,3.093%,12.87%,-26.25%,-6.631%
CCN(C)S(=O)(=O)NCC1(c2ccccc2Br)CC1,-23.2%,-4.182%,-5.561%,-1.781%,16.44%
CNCc1cn(C[C@H]2CC3CCN2C[C@@H]3C(=O)Nc2ccccc2)nn1 (stereo partly drawn),-61.24%,-4.196%,-2.885%,-13.32%,-41.88%
CCNC(=O)C1CCCN(c2ccc(C#N)cc2C(F)(F)F)C1 (stereo not drawn),-3.409%,-0.437%,1.842%,-15.33%,-12.74%

Data taken from ChEMBL document CHEMBL3988442, “University of Dundee, Small-Polar-MMV Screening Library” (2021).